The values below come from PMC10014292.

No constants are given. Whether binding was seen depends on the method and setting. In cells and extracts the contact can be indirect. Some results given as binding are weak or reduced against the parent protein; the word gives no strength. Sequences can lack the tags named with a protein.

For this test, the target named is T1, TRPC6-YFP fusion protein (human transient receptor potential canonical type 6) (human) (UniProt Q9Y210).
T1 sequence (chain, O-GlcNAc at Ser13/14, Thr70 and Thr221 (constitutive, by mass spectrometry)): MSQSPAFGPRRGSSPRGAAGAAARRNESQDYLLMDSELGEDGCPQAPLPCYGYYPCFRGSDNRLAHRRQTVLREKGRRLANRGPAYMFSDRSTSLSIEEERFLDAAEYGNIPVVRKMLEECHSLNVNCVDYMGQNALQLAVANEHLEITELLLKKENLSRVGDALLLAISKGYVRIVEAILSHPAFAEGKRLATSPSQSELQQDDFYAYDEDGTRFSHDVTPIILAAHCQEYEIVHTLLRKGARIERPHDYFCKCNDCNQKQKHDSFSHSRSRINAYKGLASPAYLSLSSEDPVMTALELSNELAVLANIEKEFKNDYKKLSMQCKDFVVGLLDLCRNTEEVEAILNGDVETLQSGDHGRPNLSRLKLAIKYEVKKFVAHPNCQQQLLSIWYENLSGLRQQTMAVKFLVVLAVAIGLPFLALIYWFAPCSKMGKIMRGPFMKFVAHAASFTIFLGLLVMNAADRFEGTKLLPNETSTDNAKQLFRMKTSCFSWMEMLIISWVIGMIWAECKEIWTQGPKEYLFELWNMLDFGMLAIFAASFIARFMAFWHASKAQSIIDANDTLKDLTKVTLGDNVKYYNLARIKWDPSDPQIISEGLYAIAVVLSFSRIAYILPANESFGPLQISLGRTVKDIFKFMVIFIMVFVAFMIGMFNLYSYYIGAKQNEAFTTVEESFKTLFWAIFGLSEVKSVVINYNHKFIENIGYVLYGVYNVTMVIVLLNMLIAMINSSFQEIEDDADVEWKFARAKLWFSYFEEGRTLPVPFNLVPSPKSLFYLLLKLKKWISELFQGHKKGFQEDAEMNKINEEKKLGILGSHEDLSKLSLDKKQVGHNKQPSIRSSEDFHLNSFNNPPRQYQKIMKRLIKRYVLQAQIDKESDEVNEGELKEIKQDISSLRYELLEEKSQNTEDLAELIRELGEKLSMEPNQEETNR
As to the kind of experiment: co-IP; HEK-293T co-transfected with TRPC6-YFP and OGT-Flag; lysed in RIPA buffer; TRPC6-YFP captured on GFP M-trap beads, 4 h at 4°C; washed in 20 mM Tris/HCl pH 7.4, 150 mM NaCl, 1 mM EDTA, 0.05% Triton X100, 5% glycerol; precipitate probed with OGT antibody.

B1: O-GlcNAc transferase (OGT), Flag-tagged (enzyme, UniProt O15294 1-1046)
chain: MASSVGNVADSTEPTKRMLSFQGLAELAHREYQAGDFEAAERHCMQLWRQEPDNTGVLLLLSSIHFQCRRLDRSAHFSTLAIKQNPLLAEAYSNLGNVYKERGQLQEAIEHYRHALRLKPDFIDGYINLAAALVAAGDMEGAVQAYVSALQYNPDLYCVRSDLGNLLKALGRLEEAKACYLKAIETQPNFAVAWSNLGCVFNAQGEIWLAIHHFEKAVTLDPNFLDAYINLGNVLKEARIFDRAVAAYLRALSLSPNHAVVHGNLACVYYEQGLIDLAIDTYRRAIELQPHFPDAYCNLANALKEKGSVAEAEDCYNTALRLCPTHADSLNNLANIKREQGNIEEAVRLYRKALEVFPEFAAAHSNLASVLQQQGKLQEALMHYKEAIRISPTFADAYSNMGNTLKEMQDVQGALQCYTRAIQINPAFADAHSNLASIHKDSGNIPEAIASYRTALKLKPDFPDAYCNLAHCLQIVCDWTDYDERMKKLVSIVADQLEKNRLPSVHPHHSMLYPLSHGFRKAIAERHGNLCLDKINVLHKPPYEHPKDLKLSDGRLRVGYVSSDFGNHPTSHLMQSIPGMHNPDKFEVFCYALSPDDGTNFRVKVMAEANHFIDLSQIPCNGKAADRIHQDGIHILVNMNGYTKGARNELFALRPAPIQAMWLGYPGTSGALFMDYIITDQETSPAEVAEQYSEKLAYMPHTFFIGDHANMFPHLKKKAVIDFKSNGHIYDNRIVLNGIDLKAFLDSLPDVKIVKMKCPDGGDNADSSNTALNMPVIPMNTIAEAVIEMINRGQIQITINGFSISNGLATTQINNKAATGEEVPRTIIVTTRSQYGLPEDAIVYCNFNQLYKIDPSTLQMWANILKRVPNSVLWLLRFPAVGEPNIQQYAQNMGLPQNRIIFSPVAPKEEHVRRGQLADVCLDTPLCNGHTTGMDVLWAGTPMVTMPGETLASRVAASQLTCLGCLELIAKNRQEYEDIAVKLGTDLEYLKKVRGKVWKQRISSPLFNTKQYTMELERLYLQMWEHYAAGNKPDHMIKPVEVTESA
In the case of B1, the binding result is “binds”.
